The experiment has as its target human IL-13 (human, UniProt P35225 35-146, biotinylated on the Biacore chip). As to the kind of experiment: IL-13 Biacore. (In general: Surface plasmon resonance follows binding to a sensor surface in real time, without labels.)

The chains behind the UniProt entries cited, without tags or fusion partners. Residues count along the entry.
UniProt P35225, residues 35-146: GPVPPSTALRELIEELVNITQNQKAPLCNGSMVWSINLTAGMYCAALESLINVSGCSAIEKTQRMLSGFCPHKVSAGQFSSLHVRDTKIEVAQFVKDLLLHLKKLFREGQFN

Consider 1 molecule from patent US20090060916A1 (published 2009).

These are yes or no findings as the source states them, for the method shown. Some entries that bind do so weakly or less than the wild type.

B1: DOM9-112-210-ASTKGPS-DOM10-416 (bispecific antibody)
chain: EVQLLESGGGLVQPGGSLRLSCAASGFTFRNFGMGWVRQAPGKGLEWVSWIISSGTETYYADSVKGRFTISRDNSKNTLYLQMNSLRAEDTAVYYCAKSLGRFDYWGQGTLVTVSSASTKGPSEVQLLESGGGLVQPGGSLRLSCAASGFTFKGSEMDWVRQAPGKGLEWVSTISADGRETYYADSVKGRFTISRDNSKNTLYLQMNSLRAEDTAVYYCAKSYTSFDYWGQGTLVTVSS
notes: in-line fusion, from pDOM5
With B1, the binding entry is given as “binds”.
